Part of at least one peptide drawing is inferred or uncertain, most often the ends.
Tested on: isolated rat soleus muscles
Assay: Rate of glycogen synthesis (incorporation of 14C-glucose into glycogen) in isolated rat soleus muscles
Assay type: cell-based
Conditions: insulin 1 to 100 microunits per ml; amylin 120 nanomoles per liter / 15 micromoles per liter; p less than 0.05 at 1 and 100 microunits per ml, Mann Whitney U test

`CC[C@H](C)[C@H](NC(=O)[C@H](C)NC(=O)CNC(=O)[C@H](Cc1ccccc1)NC(=O)[C@H](CC(N)=O)NC(=O)[C@H](CC(N)=O)NC(=O)[C@H](CO)NC(=O)[C@H](CO)NC(=O)[C@H](Cc1c[nH]cn1)NC(=O)[C@@H](NC(=O)[C@H](CC(C)C)NC(=O)[C@H](Cc1ccccc1)NC(=O)[C@H](CC(N)=O)NC(=O)[C@H](C)NC(=O)[C@H](CC(C)C)NC(=O)[C@H](CCCNC(=N)N)NC(=O)[C@H](CCC(N)=O)NC(=O)[C@@H](NC(=O)[C@H](C)NC(=O)[C@@H]1CSSC[C@H](NC(=O)[C@@H](N)CCCCN)C(=O)N[C@@H](CC(N)=O)C(=O)N[C@@H]([C@@H](C)O)C(=O)N[C@@H](C)C(=O)N[C@@H]([C@@H](C)O)C(=O)N1)[C@@H](C)O)C(C)C)C(=O)N[C@@H](CC(C)C)C(=O)N[C@@H](CO)C(=O)N[C@@H](CO)C(=O)N[C@H](C(=O)N[C@@H](CC(N)=O)C(=O)N[C@H](C(=O)NCC(=O)N[C@@H](CO)C(=O)N[C@@H](CC(N)=O)C(=O)N[C@H](C(=O)N[C@@H](Cc1ccc(O)cc1)C(N)=O)[C@@H](C)O)C(C)C)[C@@H](C)O` [amylin] was tested, and the “rate of glycogen synthesis” value was “slowed down”.
